Data as given in the supplement of paper PMC10849652.
This is one part of the list.

By UniProt entry, the sequences of proteins in these tests, tags left out. Where a name states a change or a piece, a line headed by the entry shows the natural chain unless it says otherwise.
UniProt P46013: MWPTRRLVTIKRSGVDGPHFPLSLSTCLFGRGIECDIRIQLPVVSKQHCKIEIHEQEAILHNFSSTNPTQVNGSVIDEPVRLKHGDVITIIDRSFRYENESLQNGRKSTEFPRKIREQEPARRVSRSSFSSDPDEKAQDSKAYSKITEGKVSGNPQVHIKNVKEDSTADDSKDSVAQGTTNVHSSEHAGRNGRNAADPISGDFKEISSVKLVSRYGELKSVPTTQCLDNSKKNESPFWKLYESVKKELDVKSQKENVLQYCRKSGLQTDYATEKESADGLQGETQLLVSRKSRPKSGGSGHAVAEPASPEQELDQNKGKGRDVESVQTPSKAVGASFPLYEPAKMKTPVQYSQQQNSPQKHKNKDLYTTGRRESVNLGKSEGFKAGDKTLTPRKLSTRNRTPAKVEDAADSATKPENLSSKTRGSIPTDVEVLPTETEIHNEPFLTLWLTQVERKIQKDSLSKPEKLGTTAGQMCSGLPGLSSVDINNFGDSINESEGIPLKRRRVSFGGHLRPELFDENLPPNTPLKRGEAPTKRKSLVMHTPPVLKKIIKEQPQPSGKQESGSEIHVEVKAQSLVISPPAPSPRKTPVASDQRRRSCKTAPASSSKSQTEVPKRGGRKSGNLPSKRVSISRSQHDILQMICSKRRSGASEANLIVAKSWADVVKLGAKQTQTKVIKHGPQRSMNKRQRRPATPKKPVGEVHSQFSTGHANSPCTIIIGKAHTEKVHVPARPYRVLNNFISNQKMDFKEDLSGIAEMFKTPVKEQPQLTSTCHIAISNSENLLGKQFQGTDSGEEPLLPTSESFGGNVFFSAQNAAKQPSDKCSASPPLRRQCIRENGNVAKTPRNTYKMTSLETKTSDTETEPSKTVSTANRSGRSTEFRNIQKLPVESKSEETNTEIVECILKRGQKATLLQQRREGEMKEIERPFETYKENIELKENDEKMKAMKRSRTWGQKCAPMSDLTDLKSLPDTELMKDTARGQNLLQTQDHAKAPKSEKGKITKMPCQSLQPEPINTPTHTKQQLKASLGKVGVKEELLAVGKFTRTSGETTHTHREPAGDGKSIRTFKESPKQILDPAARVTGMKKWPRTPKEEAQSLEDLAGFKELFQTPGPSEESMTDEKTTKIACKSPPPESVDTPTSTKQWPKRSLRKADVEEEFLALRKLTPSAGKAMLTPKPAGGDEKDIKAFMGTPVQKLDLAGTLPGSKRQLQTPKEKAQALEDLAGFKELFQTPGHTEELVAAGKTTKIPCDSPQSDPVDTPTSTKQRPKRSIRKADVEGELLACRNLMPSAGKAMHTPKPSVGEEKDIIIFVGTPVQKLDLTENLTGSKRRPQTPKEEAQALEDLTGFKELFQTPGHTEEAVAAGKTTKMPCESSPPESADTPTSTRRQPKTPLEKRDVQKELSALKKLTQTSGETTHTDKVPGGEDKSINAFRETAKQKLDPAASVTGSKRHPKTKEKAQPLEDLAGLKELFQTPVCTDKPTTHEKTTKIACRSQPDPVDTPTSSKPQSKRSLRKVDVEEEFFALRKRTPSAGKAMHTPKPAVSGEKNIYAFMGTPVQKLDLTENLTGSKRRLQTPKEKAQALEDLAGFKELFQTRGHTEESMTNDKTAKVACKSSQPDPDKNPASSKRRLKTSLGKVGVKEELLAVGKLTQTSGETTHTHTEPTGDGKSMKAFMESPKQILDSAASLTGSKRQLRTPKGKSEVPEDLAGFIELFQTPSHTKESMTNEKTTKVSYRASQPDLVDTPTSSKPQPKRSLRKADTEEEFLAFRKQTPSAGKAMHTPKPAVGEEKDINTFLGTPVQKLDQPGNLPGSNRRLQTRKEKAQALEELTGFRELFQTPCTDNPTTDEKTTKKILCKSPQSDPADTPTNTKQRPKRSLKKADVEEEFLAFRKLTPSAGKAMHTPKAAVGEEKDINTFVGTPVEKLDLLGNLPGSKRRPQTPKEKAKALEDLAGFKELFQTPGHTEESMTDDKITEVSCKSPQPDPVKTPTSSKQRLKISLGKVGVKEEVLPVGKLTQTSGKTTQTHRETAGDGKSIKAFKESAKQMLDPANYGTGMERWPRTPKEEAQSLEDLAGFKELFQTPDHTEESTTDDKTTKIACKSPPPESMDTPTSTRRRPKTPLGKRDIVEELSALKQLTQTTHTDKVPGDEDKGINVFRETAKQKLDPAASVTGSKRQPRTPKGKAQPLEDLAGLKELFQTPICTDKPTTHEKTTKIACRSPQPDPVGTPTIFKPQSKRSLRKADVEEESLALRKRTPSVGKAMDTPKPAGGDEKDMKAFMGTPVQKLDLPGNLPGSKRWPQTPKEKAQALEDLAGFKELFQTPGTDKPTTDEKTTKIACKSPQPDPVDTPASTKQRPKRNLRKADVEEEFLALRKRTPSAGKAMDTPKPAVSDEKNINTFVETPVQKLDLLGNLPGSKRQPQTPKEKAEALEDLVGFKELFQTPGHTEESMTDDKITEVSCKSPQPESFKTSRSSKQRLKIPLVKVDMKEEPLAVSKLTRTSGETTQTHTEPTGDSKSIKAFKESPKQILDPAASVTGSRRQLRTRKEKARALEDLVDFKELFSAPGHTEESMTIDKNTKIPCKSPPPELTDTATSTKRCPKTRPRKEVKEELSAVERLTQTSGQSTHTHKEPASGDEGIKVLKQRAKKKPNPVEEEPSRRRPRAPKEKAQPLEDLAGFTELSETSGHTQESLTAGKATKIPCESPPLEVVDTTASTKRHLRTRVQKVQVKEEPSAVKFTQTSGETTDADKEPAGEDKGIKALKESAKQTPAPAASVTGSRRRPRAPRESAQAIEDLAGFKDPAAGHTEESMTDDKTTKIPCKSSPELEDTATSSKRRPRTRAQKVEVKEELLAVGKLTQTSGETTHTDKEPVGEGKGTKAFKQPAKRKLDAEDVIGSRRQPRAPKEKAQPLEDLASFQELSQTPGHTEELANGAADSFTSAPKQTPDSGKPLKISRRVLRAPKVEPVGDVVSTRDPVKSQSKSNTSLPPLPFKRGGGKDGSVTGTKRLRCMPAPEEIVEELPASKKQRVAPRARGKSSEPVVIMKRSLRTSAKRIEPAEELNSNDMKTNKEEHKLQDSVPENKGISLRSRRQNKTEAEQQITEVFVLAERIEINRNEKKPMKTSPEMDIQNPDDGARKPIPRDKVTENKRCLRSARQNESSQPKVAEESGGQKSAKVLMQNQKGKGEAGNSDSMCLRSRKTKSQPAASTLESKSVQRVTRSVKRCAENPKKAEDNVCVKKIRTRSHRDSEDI
UniProt Q9HC36: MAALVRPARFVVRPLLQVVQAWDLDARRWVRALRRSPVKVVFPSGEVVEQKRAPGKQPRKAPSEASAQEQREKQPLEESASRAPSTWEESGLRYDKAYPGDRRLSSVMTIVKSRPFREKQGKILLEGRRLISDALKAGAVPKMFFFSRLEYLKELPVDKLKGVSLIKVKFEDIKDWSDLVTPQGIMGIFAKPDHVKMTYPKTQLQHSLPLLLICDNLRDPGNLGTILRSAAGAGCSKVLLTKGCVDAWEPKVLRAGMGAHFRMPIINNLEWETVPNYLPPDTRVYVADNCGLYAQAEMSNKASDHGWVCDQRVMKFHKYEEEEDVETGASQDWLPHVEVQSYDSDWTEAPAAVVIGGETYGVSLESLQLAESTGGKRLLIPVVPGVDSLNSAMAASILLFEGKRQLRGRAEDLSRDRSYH
UniProt Q8TAP9: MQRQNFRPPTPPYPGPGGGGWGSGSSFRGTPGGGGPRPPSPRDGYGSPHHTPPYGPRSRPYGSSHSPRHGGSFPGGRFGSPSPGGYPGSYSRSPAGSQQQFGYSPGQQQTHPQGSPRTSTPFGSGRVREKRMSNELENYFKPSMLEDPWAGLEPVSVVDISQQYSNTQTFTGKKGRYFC
UniProt Q9NXC5: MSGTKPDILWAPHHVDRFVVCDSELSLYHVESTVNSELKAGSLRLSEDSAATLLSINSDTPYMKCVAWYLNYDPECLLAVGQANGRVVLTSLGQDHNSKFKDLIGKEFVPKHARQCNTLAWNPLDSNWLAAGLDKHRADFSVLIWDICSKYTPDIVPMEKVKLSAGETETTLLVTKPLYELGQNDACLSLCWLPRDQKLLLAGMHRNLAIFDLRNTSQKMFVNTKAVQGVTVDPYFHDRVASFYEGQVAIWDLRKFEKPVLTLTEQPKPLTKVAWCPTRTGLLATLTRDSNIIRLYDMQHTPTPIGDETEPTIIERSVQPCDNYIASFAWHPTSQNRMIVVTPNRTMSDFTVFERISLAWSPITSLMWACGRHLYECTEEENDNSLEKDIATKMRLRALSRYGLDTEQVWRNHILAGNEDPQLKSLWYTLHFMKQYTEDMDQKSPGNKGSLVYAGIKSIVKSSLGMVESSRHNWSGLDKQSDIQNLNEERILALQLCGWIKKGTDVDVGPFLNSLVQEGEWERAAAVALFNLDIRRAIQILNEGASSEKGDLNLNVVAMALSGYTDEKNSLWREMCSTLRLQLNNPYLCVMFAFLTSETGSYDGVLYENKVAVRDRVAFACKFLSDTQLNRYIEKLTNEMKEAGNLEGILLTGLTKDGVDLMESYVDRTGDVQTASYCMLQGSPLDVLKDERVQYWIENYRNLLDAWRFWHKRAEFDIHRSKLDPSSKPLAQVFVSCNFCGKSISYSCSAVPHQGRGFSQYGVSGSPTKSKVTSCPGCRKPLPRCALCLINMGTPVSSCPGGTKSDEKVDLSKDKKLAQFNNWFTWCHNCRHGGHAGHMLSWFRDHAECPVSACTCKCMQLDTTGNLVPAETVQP
UniProt O95563: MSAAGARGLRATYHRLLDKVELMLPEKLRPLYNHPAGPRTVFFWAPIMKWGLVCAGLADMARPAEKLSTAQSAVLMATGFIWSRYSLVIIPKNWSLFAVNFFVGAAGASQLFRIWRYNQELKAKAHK
UniProt Q8NHP6: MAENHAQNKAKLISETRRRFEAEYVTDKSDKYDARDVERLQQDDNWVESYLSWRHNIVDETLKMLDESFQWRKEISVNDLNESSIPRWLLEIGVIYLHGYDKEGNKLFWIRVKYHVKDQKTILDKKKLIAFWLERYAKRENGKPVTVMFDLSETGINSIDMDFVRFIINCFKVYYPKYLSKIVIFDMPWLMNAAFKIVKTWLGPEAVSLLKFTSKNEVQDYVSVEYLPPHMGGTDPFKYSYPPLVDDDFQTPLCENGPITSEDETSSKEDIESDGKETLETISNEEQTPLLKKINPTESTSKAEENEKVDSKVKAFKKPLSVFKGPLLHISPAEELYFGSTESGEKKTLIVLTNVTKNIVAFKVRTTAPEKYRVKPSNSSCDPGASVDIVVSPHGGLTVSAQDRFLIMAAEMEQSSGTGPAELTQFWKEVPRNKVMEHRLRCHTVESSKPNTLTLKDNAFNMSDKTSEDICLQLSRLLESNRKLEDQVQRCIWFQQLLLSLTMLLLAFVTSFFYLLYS
UniProt P34949: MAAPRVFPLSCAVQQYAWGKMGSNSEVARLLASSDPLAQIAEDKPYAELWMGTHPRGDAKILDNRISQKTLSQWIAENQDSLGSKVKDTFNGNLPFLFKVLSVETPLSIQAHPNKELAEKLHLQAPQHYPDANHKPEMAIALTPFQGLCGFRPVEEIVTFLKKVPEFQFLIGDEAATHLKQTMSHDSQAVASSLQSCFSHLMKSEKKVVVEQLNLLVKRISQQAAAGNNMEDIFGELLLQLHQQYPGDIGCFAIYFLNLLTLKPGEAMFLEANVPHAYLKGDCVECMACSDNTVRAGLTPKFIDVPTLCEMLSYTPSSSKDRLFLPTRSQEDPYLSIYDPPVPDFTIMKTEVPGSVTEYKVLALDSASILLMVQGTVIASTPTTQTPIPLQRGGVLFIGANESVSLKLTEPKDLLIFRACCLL
UniProt Q8N4V1: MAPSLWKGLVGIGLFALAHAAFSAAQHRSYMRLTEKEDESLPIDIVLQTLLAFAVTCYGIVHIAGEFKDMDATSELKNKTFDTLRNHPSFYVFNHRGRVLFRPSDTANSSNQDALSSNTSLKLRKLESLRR
UniProt Q9NYP9: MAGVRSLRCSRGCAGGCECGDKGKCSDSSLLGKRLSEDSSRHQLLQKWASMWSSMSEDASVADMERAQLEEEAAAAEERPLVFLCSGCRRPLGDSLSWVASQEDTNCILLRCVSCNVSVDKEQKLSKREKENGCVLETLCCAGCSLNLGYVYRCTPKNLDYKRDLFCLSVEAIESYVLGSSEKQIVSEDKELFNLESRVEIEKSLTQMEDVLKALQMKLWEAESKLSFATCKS
UniProt P25325: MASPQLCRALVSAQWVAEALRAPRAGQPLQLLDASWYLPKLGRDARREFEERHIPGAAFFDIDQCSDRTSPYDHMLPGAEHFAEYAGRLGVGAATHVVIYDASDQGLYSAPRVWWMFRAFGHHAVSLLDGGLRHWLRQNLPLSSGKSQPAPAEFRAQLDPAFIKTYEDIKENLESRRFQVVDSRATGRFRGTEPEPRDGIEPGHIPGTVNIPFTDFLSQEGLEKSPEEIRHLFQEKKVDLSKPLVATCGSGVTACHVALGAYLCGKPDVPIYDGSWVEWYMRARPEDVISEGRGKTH

Columns and labels:
Experiment in all cases: log2 fold change, soluble protein after heating vs DMSO (PISA); higher = thermal stabilisation; K562 cells, 10 uM, 30 min; active = over 0.2 and 3.5 SD of the protein, either way, in both replicates (recomputed)
[1] = compound: CS(=O)(=O)c1ccc(-c2cnc(N)c(C(=O)Nc3ccccc3)n2)cc1
Procedure, shortened: (§1)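 For each measurement, 10 μM compound was applied for 30 min to K562 cells at 2×10^6 cells/mL. Aliquots were heated for 3 min across 48°C-58°C, pooled, and extracted in PBS with 0.5% NP-40 at 4°C; the supernatant after 21,000xg for 90 min was soluble protein. This was quantified by TMTpro 16plex LC-MS/MS with channel sums equalised, and thermal stability was reported relative to control samples from duplicates, on a log2 fold-change scale.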

crizotinib = compound: C[C@@H](Oc1cc(-c2cnn(C3CCNCC3)c2)cnc1N)c1c(Cl)ccc(F)c1Cl [crizotinib]
Procedure, shortened: as §1

[2] = compound: C[C@@H]1COCCN1C2=NC(=NC(=C2)C3(CC3)S(=O)(=O)C)C4=C5C=CNC5=CC=C4
Procedure, shortened: as §1

[3] = compound: C[C@H](C1=CC=C(C=C1)C(=O)NC2=C3C=CNC3=NC=C2)N
Procedure, shortened: as §1

duvelisib = compound: C[C@H](Nc1ncnc2nc[nH]c12)c1cc2cccc(Cl)c2c(=O)n1-c1ccccc1 [duvelisib]
Procedure, shortened: as §1

gandotinib = compound: Cc1cc(Nc2cc(CN3CCOCC3)c3nc(C)c(Cc4ccc(Cl)cc4F)n3n2)n[nH]1 [gandotinib]
Procedure, shortened: as §1

tozasertib = compound: Cc1cc(Nc2cc(N3CCN(C)CC3)nc(Sc3ccc(NC(=O)C4CC4)cc3)n2)n[nH]1 [tozasertib]
Procedure, shortened: as §1

[4] = compound: Cc1cc(SCc2sc(-c3ccc(C(F)(F)F)cc3)nc2C)ccc1OCC(=O)O
Procedure, shortened: as §1

doramapimod = compound: Cc1ccc(-n2nc(C(C)(C)C)cc2NC(=O)Nc2ccc(OCCN3CCOCC3)c3ccccc23)cc1 [doramapimod]
Procedure, shortened: as §1

ispinesib = compound: Cc1ccc(C(=O)N(CCCN)[C@@H](c2nc3cc(Cl)ccc3c(=O)n2Cc2ccccc2)C(C)C)cc1 [ispinesib]
Procedure, shortened: as §1

Measured: log2 fold change

MINPP1 (UniProt Q9UNW1)
inactive: [1] 0.013 | crizotinib 0.046 | [2] 0.001 | [3] -0.016 | duvelisib -0.004 | gandotinib -0.094 | tozasertib -0.017 | [4] -0.014 | doramapimod -0.015 | ispinesib 0.038

MKI67 (UniProt P46013)
inactive: [1] -0.099 | crizotinib -0.097 | [2] -0.068 | [3] 0.263 | duvelisib -0.073 | gandotinib 0.091 | tozasertib -0.079 | [4] -0.021 | doramapimod 0.063 | ispinesib -0.163

MRPL23 (UniProt Q16540)
inactive: [1] 0.064 | crizotinib 0.05 | [2] -0.064 | [3] 0.234 | duvelisib -0.177 | gandotinib 0.11 | tozasertib 0.041 | [4] 0.057 | doramapimod 0.088 | ispinesib -0.101

MRM3 (UniProt Q9HC36)
inactive: [1] -0.052 | crizotinib 0.033 | [2] -0.4 | [3] 0.363 | duvelisib -0.114 | gandotinib 0.193 | tozasertib 0 | [4] 0.016 | doramapimod 0.26 | ispinesib 0

MRPL32 (UniProt Q9BYC8)
inactive: [1] -0.052 | crizotinib 0.013 | [2] -0.138 | [3] 0.126 | duvelisib -0.157 | gandotinib 0.087 | tozasertib -0.086 | [4] -0.009 | doramapimod -0.042 | ispinesib -0.202

MRPL55 isoform 2 (UniProt Q7Z7F7)
inactive: [1] 0.084 | crizotinib -0.097 | [2] 0.039 | [3] 0.285 | duvelisib -0.052 | gandotinib -0.023 | tozasertib -0.048 | [4] 0.215 | doramapimod 0.166 | ispinesib -0.063

MPLKIP (UniProt Q8TAP9)
inactive: [1] 0.037 | crizotinib 0.107 | [2] -0.065 | [3] 0.097 | duvelisib 0.093 | gandotinib -0.061 | tozasertib -0.015 | [4] 0.066 | doramapimod -0.007 | ispinesib -0.014

MLEC (UniProt Q14165)
inactive: [1] 0.013 | crizotinib 0.049 | [2] -0.007 | [3] 0.057 | duvelisib -0.005 | gandotinib 0.027 | tozasertib 0.011 | [4] 0.034 | doramapimod 0.006 | ispinesib -0.03

MPRIP isoform 2 (UniProt Q6WCQ1)
inactive: [1] 0.003 | crizotinib -0.081 | [2] 0.028 | [3] -0.259 | duvelisib 0.007 | gandotinib 0.024 | tozasertib -0.046 | [4] -0.079 | doramapimod 0.032 | ispinesib -0.038

MMUT (UniProt P22033)
inactive: [1] 0.055 | crizotinib 0.053 | [2] -0.007 | [3] -0.029 | duvelisib 0.035 | gandotinib 0.008 | tozasertib 0.012 | [4] 0.019 | doramapimod -0.002 | ispinesib 0.134

MLXIP (UniProt Q9HAP2)
inactive: [1] -0.016 | crizotinib -0.131 | [2] 0.095 | [3] -0.017 | duvelisib 0.1 | gandotinib 0.044 | tozasertib 0.043 | [4] 0.171 | doramapimod 0.061 | ispinesib -0.097

MICALL2 (UniProt Q8IY33)
inactive: [1] 0.066 | crizotinib -0.045 | [2] 0.152 | [3] 0 | duvelisib 0.07 | gandotinib 0.082 | tozasertib -0.044 | [4] 0.194 | doramapimod 0.042 | ispinesib 0.048

Quoted from above (two entries):
MPRIP isoform 2 (UniProt Q6WCQ1)
inactive: [1] 0.003 | crizotinib -0.081 | [2] 0.028 | [3] -0.259 | duvelisib 0.007 | gandotinib 0.024 | tozasertib -0.046 | [4] -0.079 | doramapimod 0.032 | ispinesib -0.038

MMUT (UniProt P22033)
inactive: [1] 0.055 | crizotinib 0.053 | [2] -0.007 | [3] -0.029 | duvelisib 0.035 | gandotinib 0.008 | tozasertib 0.012 | [4] 0.019 | doramapimod -0.002 | ispinesib 0.134

The list continues.

MIOS (UniProt Q9NXC5)
inactive: [1] -0.019 | crizotinib 0.077 | [2] -0.123 | [3] -0.017 | duvelisib -0.019 | gandotinib -0.035 | tozasertib 0.072 | [4] -0.011 | doramapimod 0.058 | ispinesib 0.022

MPC2 (UniProt O95563)
inactive: [1] -0.001 | crizotinib 0.021 | [2] 0.029 | [3] -0.047 | duvelisib 0.039 | gandotinib -0.04 | tozasertib -0.056 | [4] -0.035 | doramapimod 0.02 | ispinesib 0.006

MRPL37 (UniProt Q9BZE1)
inactive: [1] 0.071 | crizotinib -0.017 | [2] 0.012 | [3] 0.181 | duvelisib 0.016 | gandotinib 0.017 | tozasertib -0.047 | [4] 0.102 | doramapimod 0.126 | ispinesib -0.097

MRPL35 (UniProt Q9NZE8)
inactive: [1] -0.013 | crizotinib -0.013 | [2] -0.102 | [3] 0.274 | duvelisib -0.132 | gandotinib 0.315 | tozasertib 0.111 | [4] 0.093 | doramapimod 0.029 | ispinesib -0.126

MRPL42 (UniProt Q9Y6G3)
inactive: [1] -0.13 | crizotinib -0.068 | [2] -0.21 | [3] 0.063 | duvelisib -0.085 | gandotinib -0.108 | tozasertib 0.021 | [4] -0.266 | doramapimod 0.025 | ispinesib -0.235

MRPL41 (UniProt Q8IXM3)
inactive: [1] 0.007 | crizotinib 0.016 | [2] -0.052 | [3] 0.305 | duvelisib -0.159 | gandotinib 0.228 | tozasertib 0.024 | [4] 0.053 | doramapimod 0.121 | ispinesib -0.144

MOSPD2 (UniProt Q8NHP6)
inactive: [1] 0.047 | crizotinib 0.033 | [2] 0.031 | [3] -0.094 | duvelisib 0.009 | gandotinib -0.023 | tozasertib 0.068 | [4] 0.018 | doramapimod 0.077 | ispinesib -0.047

MPI (UniProt P34949)
inactive: [1] 0.017 | crizotinib 0.002 | [2] 0.054 | [3] -0.015 | duvelisib 0.045 | gandotinib -0.105 | tozasertib -0.008 | [4] 0.006 | doramapimod -0.008 | ispinesib -0.003

MRPL43 isoform 4 (UniProt Q8N983)
inactive: [1] 0.153 | crizotinib 0.069 | [2] 0.025 | [3] 0.196 | duvelisib -0.138 | gandotinib -0.014 | tozasertib 0.037 | [4] 0.167 | doramapimod 0.132 | ispinesib -0.102

MRPL12 (UniProt P52815)
inactive: [1] 0.005 | crizotinib 0.243 | [2] 0.162 | [3] -0.098 | duvelisib 0.05 | gandotinib 0.119 | tozasertib 0.088 | [4] -0.037 | doramapimod 0.087 | ispinesib 0.091

MRPL19 (UniProt P49406)
inactive: [1] 0.05 | crizotinib 0.029 | [2] -0.05 | [3] 0.192 | duvelisib -0.096 | gandotinib 0.064 | tozasertib 0.036 | [4] 0.101 | doramapimod 0.087 | ispinesib -0.111

MRPL15 (UniProt Q9P015)
inactive: [1] 0.02 | crizotinib -0.025 | [2] -0.063 | [3] 0.316 | duvelisib -0.099 | gandotinib 0.071 | tozasertib 0.05 | [4] 0.081 | doramapimod 0.083 | ispinesib -0.168

MRE11 isoform 3 (UniProt P49959)
inactive: [1] 0.014 | crizotinib 0.112 | [2] -0.031 | [3] -0.042 | duvelisib 0.015 | gandotinib 0.021 | tozasertib 0.029 | [4] -0.04 | doramapimod -0.034 | ispinesib 0.04

MMGT1 isoform 2 (UniProt Q8N4V1)
inactive: [1] -0.002 | crizotinib 0.066 | [2] 0.17 | [3] -0.021 | duvelisib 0.029 | gandotinib 0.003 | tozasertib 0 | [4] 0.003 | doramapimod 0.004 | ispinesib -0.016

MRPL39 (UniProt Q9NYK5)
inactive: [1] 0.022 | crizotinib 0.046 | [2] -0.089 | [3] 0.248 | duvelisib -0.107 | gandotinib 0.141 | tozasertib 0.005 | [4] 0.056 | doramapimod 0.067 | ispinesib -0.02

MRPL22 (UniProt Q9NWU5)
inactive: [1] 0.009 | crizotinib 0.091 | [2] -0.041 | [3] 0.211 | duvelisib -0.102 | gandotinib 0.065 | tozasertib 0.003 | [4] 0.11 | doramapimod 0.169 | ispinesib -0.167

MIS18A (UniProt Q9NYP9)
inactive: [1] 0.024 | crizotinib 0.044 | [2] -0.047 | [3] -0.1 | duvelisib 0.024 | gandotinib -0.025 | tozasertib 0.021 | [4] -0.01 | doramapimod -0.013 | ispinesib 0.075

MPST isoform 2 (UniProt P25325)
inactive: [1] 0.015 | crizotinib 0.185 | [2] 0.046 | [3] -0.012 | duvelisib 0.048 | gandotinib -0.031 | tozasertib 0.08 | [4] 0.033 | doramapimod -0.038 | ispinesib 0.137
